Data as given in PubChem BioAssay AID602346 (Broad Institute, 2012).
About 1,200 (0.35%) of roughly 340,000 compounds were called active. The shares of active, inactive and inconclusive entries below differ from those in the screen. Rule as the data show it: active = inhibition above about 50% (passing the limit was not always enough); inconclusive = no clear call, values can overlap the other calls; inactive = below about 31%.

Experiment: blockers of Vif multimerization in cells – imaging, HEK293T, single point, primary screen (AID 602346)
Conditions: Vif self-association by quenched fluorescence, 24 h, at 7.49 µM, hits give high values

Row | Structure (SMILES) | inhibition
1 | CCN(C(=O)Cc1nc(N)n[nH]1)C1(C(=O)Nc2ccccc2)CCCCC1 | inconclusive: 35.6%
2 | O=C(O)CNC(=O)c1ccc(Oc2c(F)c(F)c(Oc3ccc(C(=O)NCC(=O)O)cc3)c(F)c2F)cc1 | inactive: 3.9%
3 | Cc1onc(-c2ccccc2)c1C(=O)Nc1ncc([N+](=O)[O-])s1 | inactive: 3.44%
4 | O=C(/C=C/c1ccccc1)/C=C/c1ccccc1 | inconclusive: 36.7%
5 | C=C(C)COc1ccc(-c2nc(N)ncc2-c2ccc(Cl)cc2)c(O)c1 | inactive: -8.99%
6 | CCc1ccc(CN(C)C(=O)c2cc(COc3cccc4cnccc34)on2)cc1 | inactive: -20%
7 | O=C(CCc1ccccc1)Nc1ccc(N2CCOCC2)c(Cl)c1 | inactive: -4.25%
8 | Cc1ccc2c(C)c(C(=O)N(C)C(C)c3ccncn3)oc2c1C (stereo unspecified) | inactive: -13.9%
9 | NC(=O)c1csc(CCNC(=O)c2ccccc2)n1 | inconclusive: 38.8%
10 | O=C(O)/C=C/C(=O)Nc1cccc(C(F)(F)F)c1 | inconclusive: 40.3%
11 | Cc1cc(Cl)ccc1NC(=O)COC(=O)CCNS(=O)(=O)c1ccccc1 | inconclusive: 49.2%
12 | Cc1onc(NC(=O)NC(=O)c2c(F)cccc2Cl)c1Br | inactive: 7.49%
13 | CN(Cc1ccccc1)C(=O)c1cnc(Cc2c[nH]c3ccccc23)c(I)c1 | inconclusive: 33.4%
14 | Nc1nnc(Cc2cccc(Br)c2)s1 | inconclusive: 20.5%
15 | C=CCOc1ccc(C2/C(=C(/O)c3ccc4c(c3)CC(C)O4)C(=O)C(=O)N2CCCN2CCOCC2)cc1 (stereo unspecified) | inconclusive: 34.1%
16 | Cc1nnc(NC(=O)c2ccccc2F)s1 | inconclusive: 25%
17 | O=C(/C=C/c1cccs1)Nc1ccc(S(=O)(=O)Nc2ncccn2)cc1 | inactive: 3.7%
18 | O=C(O)CCC(=O)Nc1ccc(-n2ccc(C(F)(F)F)n2)cc1 | inconclusive: 34.5%
19 | CCOC(=O)CN1C(=O)N[C@@H](CCc2ccccc2)C(C(=O)OC)=C1C | inconclusive: 42.6%
20 | CCOc1ccc(NC(=O)CN(c2cccc(C(F)(F)F)c2)S(C)(=O)=O)cc1 | inconclusive: 33.5%
21 | COc1cccc(CNC(=O)COC(=O)CCc2cc(OC)c(OC)c(OC)c2)c1 | inconclusive: 41.6%
22 | CCCOC(=O)c1ccc(NC(=O)c2nc3nc(C)cc(C)n3n2)cc1 | inactive: -0.112%
23 | O=C1CC(c2ccco2)Cc2c1cnn2-c1nc2ccccc2s1 (stereo unspecified) | inconclusive: 40.5%

No new results follow: an excerpt of the list.
Row | Structure (SMILES) | inhibition
13 | CN(Cc1ccccc1)C(=O)c1cnc(Cc2c[nH]c3ccccc23)c(I)c1 | inconclusive: 33.4%
14 | Nc1nnc(Cc2cccc(Br)c2)s1 | inconclusive: 20.5%

Next records:

Row | Structure (SMILES) | inhibition
24 | Cc1ccc(NS(=O)(=O)c2ccc3c(c2)CC(=O)N3)cc1F | inconclusive: 42%
25 | CN(CCc1ccccc1)C1CCCN(S(=O)(=O)CC(F)(F)F)C1 (stereo unspecified) | inconclusive: 44%
26 | O=C(/C=C/c1ccccc1)Nc1ccc(N2CCCCC2)cc1 | inactive: -9.44%
27 | COc1ccc(C(=O)N/C(=C\c2ccc3c(c2)OCO3)C(=O)Nc2cccc(C(=O)O)c2)cc1 | inconclusive: 39.7%
28 | NC(c1ccc(F)c(F)c1)c1nc(-c2cc(F)cc(F)c2)cs1 (stereo unspecified) | inconclusive: 33.8%
29 | CCOc1ncccc1C(=O)Nc1ccc(S(=O)(=O)Nc2cc(C)nc(C)n2)cc1 | inconclusive: 40.8%
30 | Cc1cccc(/C=N/NC(=O)c2ccc(NC(=O)c3cccc(Cl)c3)cc2)n1 | inconclusive: 26.7%
31 | CCC12CCCN3CCc4c(n(c5ccccc45)C(O)(C(=O)OC)C1)C32 (stereo unspecified) | inactive: -6.06%
32 | C=CCN(CC=C)C(=O)C1c2ccccc2Oc2ccccc21 | inactive: -6.57%
33 | COc1ccc(OCCNS(=O)(=O)c2ccccc2)cc1 | active: 52.2%
34 | COc1ccc2oc(=O)c(-c3csc(Nc4cccc(O)c4)n3)cc2c1 | inactive: 2.47%
35 | COC(=O)Nc1nc(-c2ccccc2)c(C(=O)c2ccc(Cl)cc2)s1 | inconclusive: 41%
36 | O=C(CCCCCn1c(=S)[nH]c2cc3c(cc2c1=O)OCO3)N1CCN(c2ccc(F)cc2)CC1 | inconclusive: 42.9%
37 | N#Cc1ccccc1OCC(=O)Nc1cccc(S(=O)(=O)N2CCCC2)c1 | inactive: 0.0335%
38 | CCN1CCCC1CNC(=O)CSCc1nc(-c2ccccc2C)oc1C (stereo unspecified) | inactive: 6.52%
39 | COc1cc(/C=N/O)ccc1OCc1ccccc1Cl | inactive: -8.66%
40 | C/C=C/c1ccc(OCCNCc2ccccc2)c(OC)c1 | active: 70%
41 | COc1ccc(-c2nc(-c3ccncc3)no2)cc1OC | inconclusive: 39.2%
42 | Cc1cccc(C)c1-n1nnnc1SCc1nc(N)nc(N(C)C)n1 | active: 129%
43 | Cc1ccc(C(=O)NC(CCc2ccccc2)C(=O)O)cc1 (stereo unspecified) | active: 118%
44 | COc1ccc(C(=O)c2sc3nc(C)cc(-c4cccs4)c3c2N)cc1OC | active: 176%
45 | O=S(=O)(c1ccccc1)N(F)S(=O)(=O)c1ccccc1 | active: 58.9%
46 | COc1ccccc1OCCCC(=O)NCc1ccco1 | active: 59.1%

Row | Structure (SMILES) | inhibition
47 | Cc1ccc(CNC(=O)c2cccc3c2C(=O)c2ccc(N4CCCCC4)cc2S3(=O)=O)cc1 | inconclusive: 44.1%
48 | COc1ccc(CC(=O)Nc2ccc(-c3noc(-c4ccc(Cl)cc4)n3)cc2)cc1 | inconclusive: 37.2%
49 | CNC(=O)Cn1nc(C)c2ccccc2c1=O | inconclusive: 33.4%
50 | CC(C)OC(=O)c1cn(-c2ccccc2)nc1-c1ccc2c(c1)OCCO2 | inconclusive: 18.3%
51 | O=C(c1cccs1)N1CCN(C(=O)c2cccs2)C1=S | active: 75.8%
52 | Cc1cc(NC(=O)CCC(=O)N(C2CC2)C(C(=O)NC(C)(C)C)c2ccccc2Cl)no1 (stereo unspecified) | inconclusive: 40.6%
53 | COc1ccc(Cl)cc1N1C(=O)/C(=C/c2sccc2C)N=C1SCC(=O)NC1CC1 | inactive: -3.94%
54 | O=[N+]([O-])c1ccccc1CSc1ccccn1 | inactive: -1.68%
55 | COc1cc(-c2csc(CCn3nc(C)cc3C)n2)cc(OC)c1OC | inconclusive: 41.4%
56 | O=C(Oc1nsnc1N1CCOCC1)N1CCOCC1 | inconclusive: 40.7%
57 | O=C(O)C(Cc1ccc(O)c([N+](=O)[O-])c1)N1C(=O)c2ccccc2C1=O (stereo unspecified) | inconclusive: 42.6%
58 | COc1ccc(C(C)C)cc1-c1cccc2nncn12 | inactive: 0.035%
59 | COc1cccc(CNc2ccc(N3CCCCC3)cc2)c1OC | inconclusive: 34.8%
60 | COc1cc(C2CC(=O)Nc3cc(C)c(C)cc32)cc(OC)c1OC (stereo unspecified) | inactive: -4.38%
61 | Cc1ccc(Cl)c(NC(=O)COC(=O)c2cc[n+]([O-])cc2)c1Cl | inconclusive: 30.8%
62 | Cc1ccc(C(=O)Nc2ccccc2C(=O)O)cc1S(=O)(=O)Nc1ccccc1 | inconclusive: 46.4%
63 | COc1cc(S(=O)(=O)NCc2ccncc2)c(OC)cc1C | active: 51%
64 | Cc1nn(-c2ccc(F)cc2)c(Cl)c1/C=N/NC(=O)c1ccc(O)cc1 | inactive: -1.51%
65 | COc1ccccc1Nc1nc(N2CCOCC2)nc(N2CCOCC2)n1 | inconclusive: 43.3%
66 | CN(CC(=O)NCCc1ccc(S(N)(=O)=O)cc1)S(=O)(=O)c1ccc(Br)s1 | active: 62.1%
67 | O=C(NOCc1ccccc1)OCc1ccccc1 | inactive: 1.51%
68 | COc1ccc(Nc2nc(NCC3CCCO3)c3ccccc3n2)c(OC)c1 (stereo unspecified) | inactive: -7.21%
69 | C=CCOc1cccc(C2C(C(=O)c3ccco3)=C(O)C(=O)N2CCN(CC)CC)c1 (stereo unspecified) | inconclusive: -1.16%

Molecules shown so far that have a halogen (25):
Row | Structure (SMILES) | inhibition
2 | O=C(O)CNC(=O)c1ccc(Oc2c(F)c(F)c(Oc3ccc(C(=O)NCC(=O)O)cc3)c(F)c2F)cc1 | inactive: 3.9%
5 | C=C(C)COc1ccc(-c2nc(N)ncc2-c2ccc(Cl)cc2)c(O)c1 | inactive: -8.99%
7 | O=C(CCc1ccccc1)Nc1ccc(N2CCOCC2)c(Cl)c1 | inactive: -4.25%
10 | O=C(O)/C=C/C(=O)Nc1cccc(C(F)(F)F)c1 | inconclusive: 40.3%
11 | Cc1cc(Cl)ccc1NC(=O)COC(=O)CCNS(=O)(=O)c1ccccc1 | inconclusive: 49.2%
12 | Cc1onc(NC(=O)NC(=O)c2c(F)cccc2Cl)c1Br | inactive: 7.49%
13 | CN(Cc1ccccc1)C(=O)c1cnc(Cc2c[nH]c3ccccc23)c(I)c1 | inconclusive: 33.4%
14 | Nc1nnc(Cc2cccc(Br)c2)s1 | inconclusive: 20.5%
16 | Cc1nnc(NC(=O)c2ccccc2F)s1 | inconclusive: 25%
18 | O=C(O)CCC(=O)Nc1ccc(-n2ccc(C(F)(F)F)n2)cc1 | inconclusive: 34.5%
20 | CCOc1ccc(NC(=O)CN(c2cccc(C(F)(F)F)c2)S(C)(=O)=O)cc1 | inconclusive: 33.5%
24 | Cc1ccc(NS(=O)(=O)c2ccc3c(c2)CC(=O)N3)cc1F | inconclusive: 42%
25 | CN(CCc1ccccc1)C1CCCN(S(=O)(=O)CC(F)(F)F)C1 (stereo unspecified) | inconclusive: 44%
28 | NC(c1ccc(F)c(F)c1)c1nc(-c2cc(F)cc(F)c2)cs1 (stereo unspecified) | inconclusive: 33.8%
30 | Cc1cccc(/C=N/NC(=O)c2ccc(NC(=O)c3cccc(Cl)c3)cc2)n1 | inconclusive: 26.7%
35 | COC(=O)Nc1nc(-c2ccccc2)c(C(=O)c2ccc(Cl)cc2)s1 | inconclusive: 41%
36 | O=C(CCCCCn1c(=S)[nH]c2cc3c(cc2c1=O)OCO3)N1CCN(c2ccc(F)cc2)CC1 | inconclusive: 42.9%
39 | COc1cc(/C=N/O)ccc1OCc1ccccc1Cl | inactive: -8.66%
45 | O=S(=O)(c1ccccc1)N(F)S(=O)(=O)c1ccccc1 | active: 58.9%
48 | COc1ccc(CC(=O)Nc2ccc(-c3noc(-c4ccc(Cl)cc4)n3)cc2)cc1 | inconclusive: 37.2%
52 | Cc1cc(NC(=O)CCC(=O)N(C2CC2)C(C(=O)NC(C)(C)C)c2ccccc2Cl)no1 (stereo unspecified) | inconclusive: 40.6%
53 | COc1ccc(Cl)cc1N1C(=O)/C(=C/c2sccc2C)N=C1SCC(=O)NC1CC1 | inactive: -3.94%
61 | Cc1ccc(Cl)c(NC(=O)COC(=O)c2cc[n+]([O-])cc2)c1Cl | inconclusive: 30.8%
64 | Cc1nn(-c2ccc(F)cc2)c(Cl)c1/C=N/NC(=O)c1ccc(O)cc1 | inactive: -1.51%
66 | CN(CC(=O)NCCc1ccc(S(N)(=O)=O)cc1)S(=O)(=O)c1ccc(Br)s1 | active: 62.1%

Later entries:

Row | Structure (SMILES) | inhibition
70 | Cc1ccccc1CSCC(=O)c1c(N)n(C)c(=O)n(C)c1=O | inconclusive: 45.2%
71 | Cc1cc(=O)c(C(=O)Nc2cccc(C(=O)NC3CC3)c2)nn1-c1ccccc1Cl | inconclusive: 22.1%
72 | COc1ccccc1C(O)(C(=O)NN(C(=O)c1ccccc1)c1ccccc1C)c1cccs1 (stereo unspecified) | active: 52.1%
73 | O=C(COC(=O)c1cc([N+](=O)[O-])ccc1N1CCOCC1)c1ccc(F)cc1 | inactive: -0.109%
74 | O=C(CSc1nc2c(sc3ccccc32)c(=O)n1CCc1ccccc1)NCc1ccco1 | inconclusive: 43.6%
75 | CC(=NNC(=O)c1cc(C)oc1C)c1ccc(Br)s1 | active: 52.2%
76 | CNS(=O)(=O)c1cccc(C(=O)Nc2cccnc2)c1 | active: 51.4%
77 | Cc1cc(C(=O)Nc2sc(C)c(-c3ccc(F)cc3)c2C(N)=O)no1 | inactive: -6.59%
78 | COc1ccc(NC(=O)Cn2nnc(C(=O)Nc3ccccc3C)c2N)cc1 | active: 53.4%
79 | N#CCc1c(C#N)c(N)nc(N2CCN(S(=O)(=O)c3ccccc3F)CC2)c1C#N | inconclusive: 31.5%
80 | COc1cccc(CN2CCC(C(=O)N3CCN(c4ccccc4F)CC3)CC2)c1OC | inconclusive: 12.7%
81 | Cn1c(Cc2ccccc2)nnc1SCC(=O)NC1CCCCC1 | inconclusive: 23%
82 | COc1ccccc1C(=O)OCC(=O)NC(=O)NCc1ccccc1 | inconclusive: 23.5%
83 | O=C(CN1CCCC1)N1CCCc2ccccc21 | inconclusive: 32.8%
84 | CCn1cc(CN2CCCC(C(=O)Nc3cccc(-c4cc5ccccc5[nH]4)c3)C2)c(C)n1 (stereo unspecified) | active: 53.2%
85 | N#Cc1ccc(CN2CCN(C(=O)CC(NC(=O)c3ccccc3)c3ccccc3)CC2)cc1 (stereo unspecified) | inconclusive: 33.3%
86 | Cc1ccc(NC(=S)NCc2ccc3c(c2)cc(C)n3C)c(C)c1 | inactive: 11.7%
87 | COc1cccc(N(CC(=O)N2CCc3ccccc3C2)S(C)(=O)=O)c1 | inconclusive: 35.9%
88 | COc1ccc(C(=O)Nc2nc3cc4c(cc3s2)OCCO4)c(OC)c1 | active: 78.5%
89 | C=CCn1c(SCC(=O)O)nc2sc(CC)cc2c1=O | inactive: 15.5%
90 | O=C(C(Br)=Cc1ccccc1)c1ccccc1 | inconclusive: 36.8%
91 | COc1ccc(C(=O)OCCc2sc[n+](CC(=O)c3ccccc3)c2C)cc1 | inconclusive: 35.8%
